Measurements from the supplement of paper PMC11006884.
This list holds what a sample rich in targets with a hit left over. The data scatter; read single values as rough. The entries are a selection whose mix differs from that of the whole data set.

Protein sequences, listed by entry. Tags and fused reporters are not part of them. Lines headed by an entry give the natural chain unless they say otherwise; changes in a name come on top.
UniProt P61077: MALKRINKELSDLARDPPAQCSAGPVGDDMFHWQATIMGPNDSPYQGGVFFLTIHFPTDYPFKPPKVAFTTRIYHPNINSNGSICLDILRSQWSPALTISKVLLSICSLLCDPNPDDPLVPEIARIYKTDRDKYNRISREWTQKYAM
UniProt P53396: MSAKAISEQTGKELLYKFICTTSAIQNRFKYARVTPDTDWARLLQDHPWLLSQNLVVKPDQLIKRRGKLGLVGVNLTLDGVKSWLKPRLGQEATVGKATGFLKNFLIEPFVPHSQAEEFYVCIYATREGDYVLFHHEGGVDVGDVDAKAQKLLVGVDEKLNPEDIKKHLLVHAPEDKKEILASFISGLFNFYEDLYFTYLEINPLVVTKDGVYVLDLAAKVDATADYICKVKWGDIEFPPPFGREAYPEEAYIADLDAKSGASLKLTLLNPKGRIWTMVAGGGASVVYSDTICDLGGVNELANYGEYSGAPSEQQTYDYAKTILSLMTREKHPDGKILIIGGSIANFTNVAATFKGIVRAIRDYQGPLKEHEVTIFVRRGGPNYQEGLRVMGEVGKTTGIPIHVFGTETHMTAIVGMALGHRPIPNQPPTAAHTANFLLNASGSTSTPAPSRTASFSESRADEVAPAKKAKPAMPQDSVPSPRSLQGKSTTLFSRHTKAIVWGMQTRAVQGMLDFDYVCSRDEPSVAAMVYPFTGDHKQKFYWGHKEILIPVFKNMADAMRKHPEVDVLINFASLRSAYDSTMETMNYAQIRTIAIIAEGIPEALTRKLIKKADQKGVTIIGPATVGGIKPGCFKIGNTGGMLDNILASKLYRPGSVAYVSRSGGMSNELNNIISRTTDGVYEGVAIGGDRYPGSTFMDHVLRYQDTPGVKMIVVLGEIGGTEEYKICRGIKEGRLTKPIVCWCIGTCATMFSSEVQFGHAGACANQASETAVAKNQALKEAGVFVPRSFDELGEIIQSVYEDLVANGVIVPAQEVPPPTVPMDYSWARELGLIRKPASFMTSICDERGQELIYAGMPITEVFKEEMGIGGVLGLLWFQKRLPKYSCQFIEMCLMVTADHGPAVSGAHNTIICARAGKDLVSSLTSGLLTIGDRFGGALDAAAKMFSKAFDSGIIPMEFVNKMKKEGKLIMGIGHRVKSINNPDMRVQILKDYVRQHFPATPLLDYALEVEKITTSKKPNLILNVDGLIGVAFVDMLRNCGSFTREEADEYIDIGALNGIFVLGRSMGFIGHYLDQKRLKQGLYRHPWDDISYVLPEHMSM
UniProt P55036: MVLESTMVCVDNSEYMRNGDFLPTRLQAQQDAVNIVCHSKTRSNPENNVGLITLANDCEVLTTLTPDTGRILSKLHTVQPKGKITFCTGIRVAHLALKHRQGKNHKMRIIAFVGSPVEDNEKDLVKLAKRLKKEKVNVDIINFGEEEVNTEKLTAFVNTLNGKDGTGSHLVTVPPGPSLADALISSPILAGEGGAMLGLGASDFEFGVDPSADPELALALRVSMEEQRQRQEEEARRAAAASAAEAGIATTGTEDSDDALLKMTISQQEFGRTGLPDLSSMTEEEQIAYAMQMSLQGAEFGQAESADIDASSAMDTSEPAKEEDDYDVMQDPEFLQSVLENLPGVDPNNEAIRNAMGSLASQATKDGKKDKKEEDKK
UniProt P53350, whole entry, looked up: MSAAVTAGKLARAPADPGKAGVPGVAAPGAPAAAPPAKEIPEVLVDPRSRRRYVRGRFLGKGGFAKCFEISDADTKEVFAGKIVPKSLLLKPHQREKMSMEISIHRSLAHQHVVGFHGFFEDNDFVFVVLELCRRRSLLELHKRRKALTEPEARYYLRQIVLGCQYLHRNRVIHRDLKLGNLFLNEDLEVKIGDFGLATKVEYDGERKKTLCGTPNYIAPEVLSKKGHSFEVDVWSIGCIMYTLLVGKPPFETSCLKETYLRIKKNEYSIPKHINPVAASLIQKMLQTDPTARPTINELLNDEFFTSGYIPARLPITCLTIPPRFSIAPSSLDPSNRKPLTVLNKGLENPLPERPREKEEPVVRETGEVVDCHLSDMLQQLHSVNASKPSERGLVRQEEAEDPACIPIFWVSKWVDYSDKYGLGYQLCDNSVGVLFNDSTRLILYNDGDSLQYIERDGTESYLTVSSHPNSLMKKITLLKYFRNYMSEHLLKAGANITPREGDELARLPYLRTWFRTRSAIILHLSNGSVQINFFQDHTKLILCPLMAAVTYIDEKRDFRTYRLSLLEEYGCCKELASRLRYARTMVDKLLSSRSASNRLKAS
UniProt P61106, whole entry, looked up: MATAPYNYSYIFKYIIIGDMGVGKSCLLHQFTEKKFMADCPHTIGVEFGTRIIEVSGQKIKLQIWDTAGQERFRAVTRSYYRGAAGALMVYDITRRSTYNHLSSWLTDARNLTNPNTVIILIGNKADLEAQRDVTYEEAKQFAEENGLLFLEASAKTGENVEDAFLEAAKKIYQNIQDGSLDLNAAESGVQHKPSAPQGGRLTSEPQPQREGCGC
UniProt P55072, whole entry, looked up: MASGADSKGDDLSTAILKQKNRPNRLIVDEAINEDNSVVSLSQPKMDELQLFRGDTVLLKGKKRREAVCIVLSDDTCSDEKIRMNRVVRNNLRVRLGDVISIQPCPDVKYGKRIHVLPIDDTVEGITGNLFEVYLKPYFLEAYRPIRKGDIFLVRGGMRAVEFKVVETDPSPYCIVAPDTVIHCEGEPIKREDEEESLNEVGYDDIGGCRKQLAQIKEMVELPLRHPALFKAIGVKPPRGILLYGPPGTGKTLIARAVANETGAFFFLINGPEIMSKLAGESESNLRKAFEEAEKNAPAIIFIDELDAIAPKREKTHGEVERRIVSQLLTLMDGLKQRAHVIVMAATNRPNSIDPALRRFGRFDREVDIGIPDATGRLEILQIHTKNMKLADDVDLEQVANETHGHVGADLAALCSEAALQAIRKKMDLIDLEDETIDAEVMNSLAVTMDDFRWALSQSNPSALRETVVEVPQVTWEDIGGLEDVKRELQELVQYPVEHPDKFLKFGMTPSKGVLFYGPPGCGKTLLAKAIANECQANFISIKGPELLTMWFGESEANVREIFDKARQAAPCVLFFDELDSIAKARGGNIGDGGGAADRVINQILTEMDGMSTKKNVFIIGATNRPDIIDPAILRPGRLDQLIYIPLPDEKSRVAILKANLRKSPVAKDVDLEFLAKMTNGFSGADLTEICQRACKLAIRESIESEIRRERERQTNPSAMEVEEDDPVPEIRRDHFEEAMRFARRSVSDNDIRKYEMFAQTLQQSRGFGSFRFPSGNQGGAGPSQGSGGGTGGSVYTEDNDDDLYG
UniProt P55209: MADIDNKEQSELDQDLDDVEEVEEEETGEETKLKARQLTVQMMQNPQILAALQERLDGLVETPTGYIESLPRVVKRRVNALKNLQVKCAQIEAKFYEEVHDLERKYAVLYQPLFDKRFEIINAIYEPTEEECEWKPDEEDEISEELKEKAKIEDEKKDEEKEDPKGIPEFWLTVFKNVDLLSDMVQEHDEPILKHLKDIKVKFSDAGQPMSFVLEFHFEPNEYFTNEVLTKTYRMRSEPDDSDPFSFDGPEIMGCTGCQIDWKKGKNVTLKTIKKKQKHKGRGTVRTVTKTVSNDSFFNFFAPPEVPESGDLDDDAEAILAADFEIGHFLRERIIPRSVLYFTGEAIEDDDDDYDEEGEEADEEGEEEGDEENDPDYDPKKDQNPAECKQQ
UniProt P60174, whole entry, looked up: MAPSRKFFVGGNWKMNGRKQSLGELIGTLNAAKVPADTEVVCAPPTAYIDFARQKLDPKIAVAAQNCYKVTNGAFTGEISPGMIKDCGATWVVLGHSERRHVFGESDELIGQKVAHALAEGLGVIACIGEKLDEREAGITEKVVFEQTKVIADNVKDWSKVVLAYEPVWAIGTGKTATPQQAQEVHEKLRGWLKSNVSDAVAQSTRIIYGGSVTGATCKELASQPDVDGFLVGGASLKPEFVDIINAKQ
UniProt P57737: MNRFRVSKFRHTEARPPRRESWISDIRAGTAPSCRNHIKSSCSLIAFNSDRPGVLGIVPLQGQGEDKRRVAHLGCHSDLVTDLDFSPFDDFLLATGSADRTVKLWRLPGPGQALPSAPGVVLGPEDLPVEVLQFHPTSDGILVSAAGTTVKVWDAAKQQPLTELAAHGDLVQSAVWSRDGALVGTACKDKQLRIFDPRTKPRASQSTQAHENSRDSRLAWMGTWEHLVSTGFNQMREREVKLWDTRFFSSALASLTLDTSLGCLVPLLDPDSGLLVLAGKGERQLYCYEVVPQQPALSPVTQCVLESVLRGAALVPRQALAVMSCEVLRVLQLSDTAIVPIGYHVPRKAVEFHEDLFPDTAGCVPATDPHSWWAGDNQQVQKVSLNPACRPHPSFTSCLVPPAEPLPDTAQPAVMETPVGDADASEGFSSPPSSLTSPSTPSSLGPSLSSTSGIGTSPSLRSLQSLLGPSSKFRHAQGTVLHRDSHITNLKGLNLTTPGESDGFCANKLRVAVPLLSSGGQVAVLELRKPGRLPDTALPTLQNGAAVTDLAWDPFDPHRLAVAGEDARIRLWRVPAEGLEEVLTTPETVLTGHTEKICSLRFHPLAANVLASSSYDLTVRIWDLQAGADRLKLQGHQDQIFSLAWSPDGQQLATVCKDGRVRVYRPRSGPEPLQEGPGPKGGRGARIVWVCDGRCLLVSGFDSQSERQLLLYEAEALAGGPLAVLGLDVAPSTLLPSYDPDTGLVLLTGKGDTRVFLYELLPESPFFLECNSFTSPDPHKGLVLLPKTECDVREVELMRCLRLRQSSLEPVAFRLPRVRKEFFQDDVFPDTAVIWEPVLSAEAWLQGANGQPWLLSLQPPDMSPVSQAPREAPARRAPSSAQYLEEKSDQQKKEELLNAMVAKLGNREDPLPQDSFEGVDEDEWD
UniProt P51991: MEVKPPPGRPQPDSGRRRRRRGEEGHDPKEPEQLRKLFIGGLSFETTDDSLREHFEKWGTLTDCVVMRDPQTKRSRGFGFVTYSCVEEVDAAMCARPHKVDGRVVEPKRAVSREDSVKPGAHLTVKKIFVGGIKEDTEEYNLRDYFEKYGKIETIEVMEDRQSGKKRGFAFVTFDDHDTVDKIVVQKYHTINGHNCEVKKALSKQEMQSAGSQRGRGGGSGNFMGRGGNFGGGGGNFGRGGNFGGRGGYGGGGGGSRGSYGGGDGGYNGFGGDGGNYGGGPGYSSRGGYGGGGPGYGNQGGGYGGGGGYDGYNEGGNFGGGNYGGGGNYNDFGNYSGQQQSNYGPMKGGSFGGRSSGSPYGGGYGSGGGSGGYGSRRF
UniProt P60981: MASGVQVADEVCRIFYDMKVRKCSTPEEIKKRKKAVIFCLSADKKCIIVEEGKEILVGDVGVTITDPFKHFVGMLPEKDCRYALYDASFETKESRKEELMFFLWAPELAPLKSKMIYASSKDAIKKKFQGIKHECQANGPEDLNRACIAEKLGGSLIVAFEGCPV
UniProt P52888, whole entry, looked up: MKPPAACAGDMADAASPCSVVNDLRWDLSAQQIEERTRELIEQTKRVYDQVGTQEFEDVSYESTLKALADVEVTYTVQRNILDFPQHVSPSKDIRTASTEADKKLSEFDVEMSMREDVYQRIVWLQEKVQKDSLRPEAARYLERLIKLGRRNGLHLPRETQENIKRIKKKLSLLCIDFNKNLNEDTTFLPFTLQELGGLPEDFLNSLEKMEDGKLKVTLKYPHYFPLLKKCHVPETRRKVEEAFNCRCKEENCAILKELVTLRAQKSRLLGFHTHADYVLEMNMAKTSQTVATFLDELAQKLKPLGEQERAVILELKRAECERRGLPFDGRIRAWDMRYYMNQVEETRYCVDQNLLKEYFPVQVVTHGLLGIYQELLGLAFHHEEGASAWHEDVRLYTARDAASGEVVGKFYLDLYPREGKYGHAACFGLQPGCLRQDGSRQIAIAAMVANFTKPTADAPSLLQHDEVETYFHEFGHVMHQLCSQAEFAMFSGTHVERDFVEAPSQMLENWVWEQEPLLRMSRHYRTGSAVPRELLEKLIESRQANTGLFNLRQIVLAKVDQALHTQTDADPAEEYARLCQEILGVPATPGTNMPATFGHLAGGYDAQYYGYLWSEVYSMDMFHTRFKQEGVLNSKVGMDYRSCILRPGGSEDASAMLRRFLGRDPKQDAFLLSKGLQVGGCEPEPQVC
UniProt P54578: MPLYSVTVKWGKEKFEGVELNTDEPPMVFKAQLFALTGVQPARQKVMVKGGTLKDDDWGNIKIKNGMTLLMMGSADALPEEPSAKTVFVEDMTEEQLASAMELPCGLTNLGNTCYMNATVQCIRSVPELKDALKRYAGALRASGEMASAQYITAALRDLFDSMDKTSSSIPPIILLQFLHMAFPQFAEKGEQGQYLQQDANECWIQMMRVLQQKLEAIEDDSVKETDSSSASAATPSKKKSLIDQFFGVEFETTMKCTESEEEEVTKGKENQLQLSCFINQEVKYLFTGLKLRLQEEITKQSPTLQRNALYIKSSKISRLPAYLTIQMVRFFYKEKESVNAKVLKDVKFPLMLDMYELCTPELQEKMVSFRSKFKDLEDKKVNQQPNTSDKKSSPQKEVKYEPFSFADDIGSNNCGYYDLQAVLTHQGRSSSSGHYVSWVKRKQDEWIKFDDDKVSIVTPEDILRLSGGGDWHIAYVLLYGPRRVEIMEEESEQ

Compound: COC(=O)/C=C/c1ccccc1 [methyl cinnamate]
Test: log2 ratio of iodoacetamide-alkyne labeling of the cysteine site, DMSO over compound (competition); higher = stronger covalent engagement of the cysteine by the compound, active = 1 or more
Details: 500 µM; treatment time 1 h; system: HEK293T cell lysate
Method in brief: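 HEK293T lysate at 2 mg/mL was treated with vehicle or electrophile (500 µM) for 1 h at ambient temperature, then labelled with iodoacetamide alkyne (1 h), clicked to sCIP-TMT reagents, pooled, digested with trypsin overnight at 37 °C, enriched on streptavidin and eluted with acid. Peptides were analysed by Orbitrap Eclipse LC-MS/MS with FAIMS and quantified in FragPipe, using duplicate channels and three replicates, with cysteines quantified in only one replicate excluded. The log2 competition ratio for each cysteine is the mean control-channel reporter intensity divided by the mean compound-channel reporter intensity.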

log2 ratio of iodoacetamide-alkyne labeling, inactive:
NUP107 C78 (UniProt P57740) 0.208
RAP1GDS1 C144 (UniProt P52306) 0.388
UniProt P52564_C38 0.188
ADAR C519 (UniProt P55265) -0.148
UniProt P61077_C107 -0.0973
UniProt P61978_C205 0.15
PPP5C C404 (UniProt P53041) 0.0703
UniProt P62241_C182 0.29
HSD17B4 C373 (UniProt P51659) -0.0025
ACLY C845 (UniProt P53396) 0.0996
PSMD4 C87 (UniProt P55036) 0.182
UniProt P61081_C65 0.192
MSH6 C1117 (UniProt P52701) 0.314
PLK1 C372 (UniProt P53350) 0.0821
UniProt P61106_C40 0.314
CLCN3 C733 (UniProt P51790) 0.573
MVD C386 (UniProt P53602) -0.00555
CTBP2 C318 (UniProt P56545) -0.0746
NUBP1 C25 (UniProt P53384) 0.38
PSMD4 C58 (UniProt P55036) -0.0215
UniProt P55072_C522 -0.141
UniProt P61201_C392 0.416
MSH6 C615 (UniProt P52701) 0.227
UniProt P55072_C209 0.225
EIF6 C11 (UniProt P56537) 0.211
NAP1L1 C88 (UniProt P55209) 0.13
UniProt P61981_C97 0.377
TPI1 C124 (UniProt P60174) 0.086
CORO7 C505 (UniProt P57737) 0.269
HNRNPA3 C94 (UniProt P51991) -0.0834
UniProt P55196_C942 0.24
DSTN C12 (UniProt P60981) 0.178
HNRNPF C290 (UniProt P52597) 0.169
UniProt P60842_C134 0.0768
THOP1 C689 (UniProt P52888) 0.378
UniProt P59998_C21 0.346
USP14 C415 (UniProt P54578) -0.0184

At a glance, some entries already given:
log2 ratio of iodoacetamide-alkyne labeling, inactive:
CLCN3 C733 (UniProt P51790) 0.573
MVD C386 (UniProt P53602) -0.00555
CTBP2 C318 (UniProt P56545) -0.0746
NUBP1 C25 (UniProt P53384) 0.38
PSMD4 C58 (UniProt P55036) -0.0215
UniProt P55072_C522 -0.141
UniProt P61201_C392 0.416
